# According to PubChem BioAssay AID1347421 (Sanford-Burnham Center for Chemical Genomics, 2020):
# Amino acid sequences for entries named in this document (tags omitted). A change or cut given only in a name is not applied to a line headed by its entry.
# UniProt O00391: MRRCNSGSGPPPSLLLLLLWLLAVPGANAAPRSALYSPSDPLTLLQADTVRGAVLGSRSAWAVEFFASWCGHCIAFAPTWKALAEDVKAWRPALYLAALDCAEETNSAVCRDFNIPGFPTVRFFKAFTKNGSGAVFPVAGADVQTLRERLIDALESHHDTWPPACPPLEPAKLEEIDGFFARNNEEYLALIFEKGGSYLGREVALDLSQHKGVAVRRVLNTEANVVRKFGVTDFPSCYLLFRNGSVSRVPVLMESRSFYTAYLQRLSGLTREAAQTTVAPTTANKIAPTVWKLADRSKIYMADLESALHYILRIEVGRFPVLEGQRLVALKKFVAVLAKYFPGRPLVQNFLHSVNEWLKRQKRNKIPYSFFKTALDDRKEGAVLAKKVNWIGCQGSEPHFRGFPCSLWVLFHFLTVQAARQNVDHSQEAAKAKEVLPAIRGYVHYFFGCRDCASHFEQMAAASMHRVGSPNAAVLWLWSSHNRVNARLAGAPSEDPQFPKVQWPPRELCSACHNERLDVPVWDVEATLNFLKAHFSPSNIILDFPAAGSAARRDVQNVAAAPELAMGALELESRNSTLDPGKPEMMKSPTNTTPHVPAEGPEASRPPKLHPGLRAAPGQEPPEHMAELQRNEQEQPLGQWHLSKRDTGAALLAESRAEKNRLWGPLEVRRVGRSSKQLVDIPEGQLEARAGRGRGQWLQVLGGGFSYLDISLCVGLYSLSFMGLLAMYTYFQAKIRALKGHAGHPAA
# In all, about 1,500 compounds were measured (“activity”: median about 2, lowest 2% from about -18 on). Some of the results follow. The source made the active and inactive calls.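 Rule for the calls: active = inhibition of at least 40% at 10 µM; inconclusive = no clear call, values can overlap the other calls; inactive = the rest.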
# Biological target: Sulfhydryl oxidase 1 (Homo sapiens) (UniProt O00391)
# Experiment: human QSOX1 sulfhydryl oxidase inhibition – biochemical, ROS-Glo luminescence, single concentration, confirmation (AID 1347421);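 note: 0% = DMSO wells with enzyme and 100% = wells lacking QSOX1 enzyme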
# Conditions: recombinant hQSOX1, RNase A substrate, ROS-Glo H2O2 luminescence; at 10 µM
row,SMILES,activity
1,O=C(NC1CCCN(CCc2ccccc2)C1)c1cc2ccccc2oc1=O (configuration not stated),2.2%
2,CN1CCC(N(C)C(=O)CCC2CCCN(C(=O)CN3CCCCC3=O)C2)CC1 (configuration not stated),1.7%
3,COc1ccc(CNCCc2cscn2)cc1OCC(O)CN1CCCC1 (configuration not stated),inactive: -0.1%
4,COCCC(=O)N1CCC(Oc2ccc(C(=O)N(C)Cc3cc(C)no3)cc2)CC1,2.6%
5,Cc1cccn2cc(Cn3ccc(-c4cccc(-c5cncnc5)c4)n3)nc12,7.2%
6,C=CCNC(=O)C1CCN(S(=O)(=O)c2ccc3ccccc3c2)CC1,inactive: -2.2%
7,Cc1nnc(SCC(=O)N2CCOC(CCc3ccccc3)C2)o1 (configuration not stated),8.8%
8,O=C(C1CCC(O)CC1)N1CCC(C2CCN(CCc3ccccc3)C2)CC1 (configuration not stated),0.3%
9,Cc1c(CN2CCCC(N3CCC(CO)CC3)C2)c(=O)n(-c2ccccc2)n1C (configuration not stated),2.4%
10,COc1ccc(CNCCCn2cccn2)cc1OCC(O)CN(C)C(C)C (configuration not stated),2.5%
11,Cc1cccc(-c2noc(CN3CCN(c4ccc(F)cc4)CC3)n2)c1,8.5%
12,COc1cc(-c2[nH]ncc2CN(C)Cc2ccccc2C(F)(F)F)cc(OC)c1OC,6%
13,COc1ccc(CN2CCNC(=O)C2CC(=O)NCCc2cscn2)cc1OC (configuration not stated),inactive: -0.8%
14,COc1cccc(NC(=O)CCC2CCN(C(=O)c3cnsn3)CC2)c1,2.1%
15,CCN(Cc1ccncc1)Cc1ccc(OCC(O)CN2CCSCC2)c(OC)c1 (configuration not stated),inactive: -1.3%
16,COc1cccc(CCC2CCCN(C(=O)CSc3ccncc3)C2)c1 (configuration not stated),inactive: -3.7%
17,CCOC(=O)C1(Cc2cccc(OC)c2)CCCN(C(=O)c2ccncc2)C1 (configuration not stated),3.2%
18,CCCN1CCN(CC2(O)CCCN(Cc3cccc(C)c3)C2=O)CC1 (configuration not stated),inactive: -5.4%
19,FC(F)(F)c1ccc(-c2noc(CN3CCCCCCC3)n2)cc1,3.5%
20,COCCn1c(CN(C)Cc2cccnc2)cnc1S(=O)(=O)CC(C)(C)C,7.7%
21,COc1cc(CNCC(C)(C)OC)ccc1OCC(O)CN(C)C(C)C (configuration not stated),7.6%
22,CC(C)(C)C1(c2ccccc2)NC(=O)N(CC(=O)N2CCCCC2)C1=O (configuration not stated),inactive: -23.9%

row,SMILES,activity
1,O=C(NC1CC1)c1cccc(-n2cnnc2)c1,2.2%
2,CCCN(CC1CC1)C(=O)C1CCN(C2CCN(Cc3cccc(C)n3)CC2)CC1,inactive: -0.4%
3,COc1cccc(CNC(=O)CCC2CCCN(c3ncccn3)C2)c1 (configuration not stated),1.6%
4,COc1ccc(CN2CCN(Cc3ccsc3)CC2CCO)c(F)c1 (configuration not stated),7.8%
5,Cc1nc2nc(NC(=O)c3cccnc3)nn2c(C)c1Cl,4.5%
6,Cc1nc(CC(=O)N2CCCC(CCC(=O)N(C)CCc3ccccn3)C2)cs1 (configuration not stated),inactive: -8%
7,CC(c1ccon1)N(C)Cc1cnc(S(C)(=O)=O)n1Cc1ccccc1F (configuration not stated),inactive: -1.3%
8,Cc1ccc(-c2cn(S(=O)(=O)c3cccc4nsnc34)nc2N)cc1,3.4%
9,CSc1ncc(Cl)c(C(=O)Nc2cccc(C)c2C)n1,inactive: -16%
10,CN(CCc1cnn(C)c1)C(=O)c1cn(Cc2ccc(F)cc2)nn1,13.8%
11,O=CN1CCCN(C(=O)c2csc3nc(-c4ccccc4F)cn23)CC1,5.5%
12,COc1ccc(-c2noc(CN3CCCC(C(=O)c4cccs4)C3)n2)c(OC)c1OC (configuration not stated),3.2%
13,COc1ccc(CNC(=O)CCC2CCCN(Cc3cccnc3)C2)c(OC)c1 (configuration not stated),2.8%
14,O=C(Cc1cccs1)NC1CC(=O)N(Cc2ccccc2C(F)(F)F)C1 (configuration not stated),0.2%
15,O=C(NCCCN1CCOCC1)c1ccc2nc(Cc3ccccc3F)oc2c1,inactive: -2.9%
16,CN(C)CCC1CN(Cc2cnc(-c3ccccc3)s2)CCO1 (configuration not stated),inactive: -0.6%
17,Cc1ncsc1CCC(=O)NC1CCCN(C2CCN(C)CC2)C1 (configuration not stated),inactive: -2.3%
18,COc1ccc(CN2CCC(O)CC2)cc1OCC(O)CN(C)Cc1ccccc1 (configuration not stated),4.6%
19,Cc1oc(-c2ccco2)nc1CN(C)CC1COc2ccccc2O1 (configuration not stated),4.7%
20,CN1CCC(N2CCCC(NC(=O)/C=C/c3c(F)cccc3F)C2)CC1 (configuration not stated),3.8%
21,Fc1ccc(C2(c3noc(C4=CCCCC4)n3)CCOC2)cc1 (configuration not stated),7.5%
22,O=C1CCCN1CCCC(=O)N1CCOC(CCc2ccccc2)C1 (configuration not stated),2.8%

row,SMILES,activity
1,COc1ccc(Br)cc1C(=O)NC(=S)Nc1ncccc1O,3.2%
2,Cc1cccc(CCNC(=O)c2cn(Cc3ccc(F)cc3)nn2)n1,inactive: -1.9%
3,CC(C)c1ccc(NC2CCCN(C(=O)CCC3=NNC(=O)CC3)C2)cc1 (configuration not stated),4.8%
4,NCC1CCN(c2cnn(CCCOCc3ccccc3)c(=O)c2)CC1,7.4%
5,CN(C)S(=O)(=O)c1cccc(C(=O)NCc2ccccc2)c1,inactive: -2.1%
6,COC(=O)c1sc2nc3c(c(C(F)(F)F)c2c1N)CN(C(C)=O)CC3,0.6%
7,O=C1CCCN1CC1CCN(Cc2c(C(=O)N3CCCC3)nc3ccccn23)CC1,3%
8,O=C(NCCCn1cccn1)c1coc(CN2CCN(Cc3ccccc3)CC2)n1,8.8%
9,COCCN1C(=O)c2cccnc2C1=O,4.6%
10,CCN1CCN(CC(O)COc2cccc(CNCc3ccc(C)s3)c2)CC1 (configuration not stated),inactive: -7.7%
11,O=C(NC1CCCN(C2CCCCCC2)C1)c1cc[n+]([O-])cc1 (configuration not stated),2.5%
12,O=C(NCC1CCOCC1)c1ccc(OC2CCN(Cc3ccccn3)CC2)cc1,6.6%
13,Cc1ccccc1-c1ccccc1C(=O)N1CCC(CCC(=O)N2CCOCC2)CC1,inactive: -1.3%
14,CN(CCc1ccccn1)C(=O)c1cc(COc2ccc(F)cc2F)on1,4.8%
15,Fc1cccc(-c2n[nH]c3c2CN(Cc2ccsc2)CC3)c1,3.8%
16,COc1ccccc1N1CCN(C2CCCN(Cc3cccc(C(C)=O)c3)C2)CC1 (configuration not stated),0.4%
17,CN(C)CCN(CC1CCCN(Cc2ccccc2F)C1)C(=O)CCc1cnn(C)c1 (configuration not stated),5.8%
18,c1ccc(-c2noc3c2CN(Cc2ccco2)CC3)cc1,inactive: -1.8%
19,O=C(CN1CCCCCC1)Nc1ccccc1C(F)(F)F,inactive: -17.3%
20,C#CCN(Cc1ccco1)C(=O)c1cn(Cc2ccc(F)cc2)nn1,3%
21,Fc1cccc(C2(CNc3ccc4[nH]ncc4c3)CCOC2)c1 (configuration not stated),0.6%
22,COc1cccc(-c2noc3c2CN(Cc2csc(C(C)=O)c2)CC3)c1,8.2%

row,SMILES,activity
1,COCCN1CCC(CN(Cc2ccncc2)Cc2csc(C(C)=O)c2)CC1,inactive: -7.9%
2,COc1ccccc1N1CCN(C2CCCN(Cc3csc(C(C)=O)c3)C2)CC1 (configuration not stated),inactive: -2.8%
3,O=C(CCC1CCCN(C(=O)CCN2CCCCO2)C1)NCc1ccc(F)c(F)c1 (configuration not stated),4.7%
4,COc1ccc(CNCCc2scnc2C)cc1OCC(O)CN(C)C(C)C (configuration not stated),7.8%
5,COCc1nnc(NC(=O)CCSc2ccccc2)s1,inactive: -9.1%
6,O=C(CCC1CCCN(c2cnccn2)C1)NCc1ccc(F)c(F)c1 (configuration not stated),9.3%
7,CCc1nc(CN2CCC(N3CCC(C(=O)NC(C)C)CC3)CC2)c(C)[nH]1,2%
8,CCS(=O)(=O)N(C)c1ccc(C(=O)O)cc1,inactive: -5.4%
9,COc1cccc2c1OCC(NCc1cc(F)ccc1-n1cccn1)C2 (configuration not stated),inactive: -1.9%
10,O=C(NCC1CCCN(C2CCCCC2)C1)c1ccc(F)cc1 (configuration not stated),5.3%
11,COc1ccc(NC2CCCN(C(=O)Cc3ccsc3)C2)cc1OC (configuration not stated),inactive: -3.5%
12,Cc1cccc(C(=O)Nc2ccc(N)cc2O)c1,2.6%
13,COc1ccc(-c2cnnc(N(C)CCC3CCOCC3)n2)cc1F,0.9%
14,CC1(C)CC(=O)C=C(C(=O)NCc2cccnc2-n2ccnc2)O1,9.5%
15,CN(Cc1nccs1)C(=O)C1CCC(=O)N(CCc2cccc(F)c2)C1 (configuration not stated),5.7%
16,COc1ccc(C(CC(=O)NC2CCC(O)CC2)c2ccccc2)cc1 (configuration not stated),inactive: -2.7%
17,Cc1ccc(C(N)=O)cc1S(=O)(=O)N1CCCC1,inactive: -9.5%
18,[C+]1=NC=CN1CCOc1ccc2c(c1)CCC2,inactive: -0.4%
19,CCC1CN(C(=O)c2ccc(NCc3cnn(C)c3C)nc2)CCN1C(C)C (configuration not stated),inactive: -1%
20,COc1ccc(CN2CCCC2)cc1OCC(O)CN(C)Cc1ccccc1 (configuration not stated),inactive: -1%
21,COC(=O)C1CCN(C(=O)c2ccc(OC3CCN(Cc4ccccn4)CC3)cc2)CC1,3%
22,CC(C)OCCCNC(=O)CC1C(=O)NCCN1Cc1ccc(F)c(F)c1 (configuration not stated),inactive: -2.4%

# Retrieved by compound from the list above:
row,SMILES,activity
6,COC(=O)c1sc2nc3c(c(C(F)(F)F)c2c1N)CN(C(C)=O)CC3,0.6%
17,Cc1ccc(C(N)=O)cc1S(=O)(=O)N1CCCC1,inactive: -9.5%
4,NCC1CCN(c2cnn(CCCOCc3ccccc3)c(=O)c2)CC1,7.4%
19,CCC1CN(C(=O)c2ccc(NCc3cnn(C)c3C)nc2)CCN1C(C)C (configuration not stated),inactive: -1%
19,Cc1oc(-c2ccco2)nc1CN(C)CC1COc2ccccc2O1 (configuration not stated),4.7%
1,COc1ccc(Br)cc1C(=O)NC(=S)Nc1ncccc1O,3.2%
3,COc1ccc(CNCCc2cscn2)cc1OCC(O)CN1CCCC1 (configuration not stated),inactive: -0.1%

# (cont.)

row,SMILES,activity
1,COCCC(=O)N(CCOC)CC1CCN(Cc2ccccc2F)CC1,5.2%
2,Fc1ccc(-c2noc3c2CN(Cc2nccs2)CC3)cc1F,2.4%
3,CCN1CCN(S(=O)(=O)c2cc(C)c(C)cc2Br)CC1,4.9%
4,Cc1ccc(-c2cnnc(NCc3nc(C)c4c(n3)CCCC4)n2)o1,2.3%
5,Fc1cccc(C2(CNCc3cccc(-n4cncn4)c3)CCOC2)c1 (configuration not stated),1.9%
6,Cc1cc(C)c(C(=O)N2CCCC(CNS(=O)(=O)Cc3ccccc3)C2)o1 (configuration not stated),16.1%
7,CCOc1ccc(Br)cc1C(=O)N1CCCC1,inactive: -16.8%
8,CSc1ccc(CNCc2cccnc2)cc1,0.3%
9,c1cc2c(cc1N1CCC(N3CCCC(N4CCCC4)C3)CC1)OCO2 (configuration not stated),1.5%
10,OCC1CCN(C2CCCN(C3Cc4ccccc4C3)C2)CC1 (configuration not stated),0.8%
11,CN(CC1CCN(CCc2ccc(F)cc2)CC1)C(=O)c1cc2ccccc2oc1=O,inactive: -0.8%
12,Cc1ccc(CN2C(=O)CC(N3CCOCC3)C2=O)cc1 (configuration not stated),6.6%
13,CC(C)N1CCC(CN(C)C(=O)Cn2nnnc2CN2CCOCC2)C1 (configuration not stated),inactive: -4.8%
14,CCOC(=O)C1CCN(C(=O)CCc2ccc(OC)cc2)CC1,inactive: -2%
15,O=C(NCc1ccc2c(c1)OCO2)C1CCC(=O)N(CCc2cccc(F)c2)C1 (configuration not stated),inactive: -2%
16,Cc1cc(=O)oc(C)c1C(=O)NC1CCCN(Cc2ccc(Cl)cc2)C1 (configuration not stated),10.3%
17,CC1CCN(Cc2nnnn2CC(=O)NCCCn2ccnc2)CC1,7.1%
18,O=C1CCCCN1CCNc1ccc(-c2nc(-c3ccccc3F)no2)cn1,8.2%
19,CN(C)S(=O)(=O)N1CCC(Oc2cccc(C(=O)NC3CCOC3)c2)CC1 (configuration not stated),6.3%
